In article doi:10.1101/2025.05.06.652514:
No constants are given. Whether binding was seen depends on the method and setting. For part of these data: Binding seen in cells or lysates may run through a third protein. Some results given as binding are weak or reduced against the parent protein; the word gives no strength. For part of these data: Tags and fused reporters may be left off the sequences shown.

B1: CLF-mVenus (XVE:CLF-mVenus), full length (protein, UniProt P93831 1-902)
chain: MASEASPSSSATRSEPPKDSPAEERGPASKEVSEVIESLKKKLAADRCISIKKRIDENKKNLFAITQSFMRSSMERGGSCKDGSDLLVKRQRDSPGMKSGIDESNNNRYVEDGPASSGMVQGSSVPVKISLRPIKMPDIKRLSPYTTWVFLDRNQRMTEDQSVVGRRRIYYDQTGGEALICSDSEEEAIDDEEEKRDFLEPEDYIIRMTLEQLGLSDSVLAELASFLSRSTSEIKARHGVLMKEKEVSESGDNQAESSLLNKDMEGALDSFDNLFCRRCLVFDCRLHGCSQDLIFPAEKPAPWCPPVDENLTCGANCYKTLLKSGRFPGYGTIEGKTGTSSDGAGTKTTPTKFSSKLNGRKPKTFPSESASSNEKCALETSDSENGLQQDTNSDKVSSSPKVKGSGRRVGRKRNKNRVAERVPRKTQKRQKKTEASDSDSIASGSCSPSDAKHKDNEDATSSSQKHVKSGNSGKSRKNGTPAEVSNNSVKDDVPVCQSNEVASELDAPGSDESLRKEEFMGETVSRGRLATNKLWRPLEKSLFDKGVEIFGMNSCLIARNLLSGFKSCWEVFQYMTCSENKASFFGGDGLNPDGSSKFDINGNMVNNQVRRRSRFLRRRGKVRRLKYTWKSAAYHSIRKRITEKKDQPCRQFNPCNCKIACGKECPCLLNGTCCEKYCGCPKSCKNRFRGCHCAKSQCRSRQCPCFAADRECDPDVCRNCWVIGGDGSLGVPSQRGDNYECRNMKLLLKQQQRVLLGISDVSGWGAFLKNSVSKHEYLGEYTGELISHKEADKRGKIYDRENCSFLFNLNDQFVLDAYRKGDKLKFANHSPEPNCYAKVIMVAGDHRVGIFAKERILAGEELFYDYRYEPDRAPAWAKKPEAPGSKKDENVTPSVGRPKKLA
B2: CURLY LEAF (CLF), full length, yeast two-hybrid fusion (protein, UniProt P93831 1-902)
chain: B1 chain
B3: EMBRYONIC FLOWER 1 (EMF1), full length, yeast two-hybrid fusion (protein, UniProt Q9LYD9 1-1096)
chain: MGSSIKINSISIDLAGAANEIDMVKCDHFSMRGFVAETRERDLRKCWPFSEESVSLVDQQSYTLPTLSVPKFRWWHCMSCIKDIDAHGPKDCGLHSNSKAIGNSSVIESKSKFNSLTIIDHEKEKKTDIADNAIEEKVGVNCENDDQTATTFLKKARGRPMGASNVRSKSRKLVSPEQVGNNRSKEKLNKPSMDISSWKEKQNVDQAVTTFGSSEIAGVVEDTPPKATKNHKGIRGLMECDNGSSESINLAMSGLQRRKSRKVRLLSELLGNTKTSGGSNIRKEESALKKESVRGRKRKLLPENNYVSRILSTMGATSENASKSCDSDQGNSESTDSGFDRTPFKGKQRNRRFQVVDEFVPSLPCETSQEGIKEHDADPSKRSTPAHSLFTGNDSVPCPPGTQRTERKLSLPKKKTKKPVIDNGKSTVISFSNGIDGSQVNSHTGPSMNTVSQTRDLLNGKRVGGLFDNRLASDGYFRKYLSQVNDKPITSLHLQDNDYVRSRDAEPNCLRDFSSSSKSSSGGWLRTGVDIVDFRNNNHNTNRSSFSNLKLRYPPSSTEVADLSRVLQKDASGADRKGKTVMVQEHHGAPRSQSHDRKETTTEEQNNDDIPMEIVELMAKNQYERCLPDKEEDVSNKQPSQETAHKSKNALLIDLNETYDNGISLEDNNTSRPPKPCSSNARREEHFPMGRQQNSHDFFPISQPYVPSPFGIFPPTQENRASSIRFSGHNCQWLGNLPTVGNQNPSPSSFRVLRACDTCQSVPNQYREASHPIWPSSMIPPQSQYKPVSLNINQSTNPGTLSQASNNENTWNLNFVAANGKQKCGPNPEFSFGCKHAAGVSSSSSRPIDNFSSESSIPALHLLSLLDPRLRSTTPADQHGNTKFTKRHFPPANQSKEFIELQTGDSSKSAYSTKQIPFDLYSKRFTQEPSRKSFPITPPIGTSSLSFQNASWSPHHQEKKTKRKDTFAPVYNTHEKPVFASSNDQAKFQLLGASNSMMLPLKFHMTDKEKKQKRKAESCNNNASAGPVKNSSGPIVCSVNRNPADFTIPEPGNVYMLTGEHLKVRKRTTFKKKPAVCKQDAMKQTKKPVCPPTQNA
B4: CLF, full length, split-luciferase fusion (CLF-nLUC and CLF-cLUC) (protein, UniProt P93831 1-902)
chain: B1 chain
B5: ULT1, full length, split-luciferase fusion (ULT1-nLUC and ULT1-cLUC) (protein, UniProt Q8GZA8 1-237)
chain: MANNEGEMQCGSMLFKQEELQEMSGVNVGGDYVEVMCGCTSHRYGDAVARLRVFPTGDLEITCECTPGCDEDKLTPAAFEKHSGRETARKWKNNVWVIIGGEKVPLSKTVLLKYYNESSKKCSRSNRSQGAKVCHRDEFVGCNDCGKERRFRLRSRDECRLHHNAMGDPNWKCSDFPYDKITCEEEEERGSRKVYRGCTRSPSCKGCTSCVCFGCELCRFSECTCQTCVDFTSNVKA
B6: FVE/MSI4, full length, cLUC fusion (FVE-cLUC), O22607 1-507 (protein)
chain: MESDEAAAVSPQATTPSGGTGASGPKKRGRKPKTKEDSQTPSSQQQSDVKMKESGKKTQQSPSVDEKYSQWKGLVPILYDWLANHNLVWPSLSCRWGPQLEQATYKNRQRLYLSEQTDGSVPNTLVIANCEVVKPRVAAAEHISQFNEEARSPFVKKYKTIIHPGEVNRIRELPQNSKIVATHTDSPDVLIWDVETQPNRHAVLGAANSRPDLILTGHQDNAEFALAMCPTEPFVLSGGKDKSVVLWSIQDHITTIGTDSKSSGSIIKQTGEGTDKNESPTVGPRGVYHGHEDTVEDVAFSPTSAQEFCSVGDDSCLILWDARTGTNPVTKVEKAHDADLHCVDWNPHDDNLILTGSADNTVRLFDRRKLTANGVGSPIYKFEGHKAAVLCVQWSPDKSSVFGSSAEDGLLNIWDYDRVSKKSDRAAKSPAGLFFQHAGHRDKVVDFHWNASDPWTIVSVSDDCETTGGGGTLQIWRMSDLIYRPEEEVVAELEKFKSHVMTCASKP

Tests used:
[1] = molecular target: T1, ULT1-mCherry (XVE:ULT1-mCherry), full length (Arabidopsis thaliana) (UniProt Q8GZA8); test: FRET or BRET
T1 sequence: B5 chain

[2] = molecular target: T2, U…1 (ULT1), full length, GAL4 DNA-BD fusion (pGBKT7) (Arabidopsis thaliana) (UniProt Q8GZA8); test: two-hybrid
T2 sequence: B5 chain

[3] = molecular target: T3, ULT1, full length, split-luciferase fusion (ULT1-nLUC and ULT1-cLUC) (Arabidopsis thaliana) (UniProt Q8GZA8); test: split reporter
T3 sequence: B5 chain

[4] = molecular target: T4, CLF, full length, split-luciferase fusion (CLF-nLUC and CLF-cLUC) (Arabidopsis thaliana), P93831; test: split reporter; details: remark: other sources report otherwise
T4 chain: B1 chain

Binder	binding [2]	binding [3]	other results
B1	–	–	binding [1]: binds
B2	binds	–	–
B3	binds	–	–
B4	–	binds	–
B5	–	binds	–
B6	–	–	binding [4]: binds
